# No constants are given. Whether binding was seen depends on the method and setting.
# Target: aNRP2-36v2
# Assay: Western blot competition: 1 ug/mL aNRP2-36v2 with 5 ug/mL control peptide, detection of NRP2v2 (23-855) and of NRP2a isoform 2 in lysate
binder,measurement,value
VDIPEIHEREGY [control peptide],binding,no binding (tested: 5 ug/mL)

# From US20250216395A1
